We go through 2 substances from paper PMC12005277.

Amino acid sequences for entries named in this document (tags omitted). A change or cut given only in a name is not applied to a line headed by its entry.
UniProt P05496: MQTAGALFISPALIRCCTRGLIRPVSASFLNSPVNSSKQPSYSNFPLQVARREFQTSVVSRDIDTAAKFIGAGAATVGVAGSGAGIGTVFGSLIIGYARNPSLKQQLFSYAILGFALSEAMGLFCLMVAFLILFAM
UniProt Q9UMX0: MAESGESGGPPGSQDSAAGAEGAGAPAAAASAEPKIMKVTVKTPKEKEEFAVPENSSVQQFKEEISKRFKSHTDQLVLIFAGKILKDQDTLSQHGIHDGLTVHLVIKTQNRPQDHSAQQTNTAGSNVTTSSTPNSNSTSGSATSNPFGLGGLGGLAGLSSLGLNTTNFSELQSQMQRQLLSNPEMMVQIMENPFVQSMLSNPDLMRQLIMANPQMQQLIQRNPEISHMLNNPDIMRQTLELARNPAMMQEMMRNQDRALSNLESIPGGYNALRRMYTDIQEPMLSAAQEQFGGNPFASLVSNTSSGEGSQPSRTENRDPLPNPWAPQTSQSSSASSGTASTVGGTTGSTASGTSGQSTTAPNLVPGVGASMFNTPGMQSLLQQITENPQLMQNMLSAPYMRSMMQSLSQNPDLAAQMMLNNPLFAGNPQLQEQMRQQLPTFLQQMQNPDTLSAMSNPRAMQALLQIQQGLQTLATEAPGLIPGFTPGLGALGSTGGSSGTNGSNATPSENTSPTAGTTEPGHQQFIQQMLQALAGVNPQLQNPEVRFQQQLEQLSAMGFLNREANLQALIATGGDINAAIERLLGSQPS

No constants are given. Whether binding was seen depends on the method and setting. In cells and extracts the contact can be indirect. Binding can be weak; no strength is given.

Experiment [1] concerns the target ATP5G1-3xFLAG (ATP synthase F(0) complex subunit C1, precursor) (human) (UniProt P05496). Put plainly: co-IP; anti-FLAG agarose for FLAG-tagged ATP5G1; HEK293T lysates (Figure 3E: BAG6 knockout cells, with or without 20 μM MG132 for 2 h); 50 mM Tris-HCl, 150 mM NaCl, 2 mM MgCl2, 0.05% digitonin, 4 °C, 2 h.
Experiment [2] has as its target Myc-tagged UBQLN1 (WT) (human) (UniProt Q9UMX0). Nature of the experiment: co-IP; anti-Myc agarose for Myc-UBQLN1 or Myc-RNF126; HEK293T cells (wild type or BAG6 knockout) treated with 20 μM MG132 for 2 h; 50 mM Tris-HCl, 150 mM NaCl, 2 mM MgCl2, 0.05% digitonin, 4 °C, 2 h.

As for “ubiquilin 1 (UBQLN1) in HEK293T lysate (from UniProt Q9UMX0 1-589)”, the binding result in experiment [1] is recorded as “binds”.

For the substance “ATP5G1-3xFLAG (ATP synthase F(0) complex subunit C1, precursor) (from UniProt P05496)”, in experiment [2], the binding entry was “binds”.
